From patent publication US6864402B1, “Chronic hepatitis virus infection and clonal hepatocellular carcinoma in mouse repopulated livers” (Albert Einstein College of Medicine of Yeshiva University, priority 1998, dated 2005)
At least one structure is not confirmed: it was looked up by name or label, or the drawing left a doubt.

Tested on: WHV replication
Assay: Antiviral studies in WHV replicating chimeric uPA/RAG-2 mice (serum WHV DNA dot blot)
Format: in vivo

**Q.** With `C[C@@H]1C[C@H]2[C@@H]3CCC4=CC(=O)C=C[C@]4(C)[C@@]3(F)[C@@H](O)C[C@]2(C)[C@@]1(O)C(=O)CO` [Dexamethasone] as the compound, how does the “WHV replication (WHV titer in serum) during treatment” value (Dexamethasone 27 ng/g body weight intramuscularly daily for 15 consecutive days, chimeric uPA/RAG-2 mouse) read?
**A.** significantly upregulated viral replication

**Q.** And the “WHV replication after withdrawal of agent, compared with pretreatment” value (after withdrawal of dexamethasone (27 ng/g i.m. daily, 15 days))?
**A.** remained at higher levels compared with pretreatment levels
